Some of these results come from one statement about several compounds together. Some ranges recur; such a range may be that of the whole group of compounds.
What was measured:
HCT 116 cells = test: Viability assay in HCT 116 cells (CellTiter-Glo); type: cell-based; conditions: HCT 116 human colon carcinoma cells, 5 days incubation, ATP luminescence readout
Protocol: A viability assay was performed using the CellTiter-Glo® Luminescent Cell Viability Assay (see Promega Corporation's Technical Bulletin No. 288, pp. 1-11 [revised 2/04] which is hereby incorporated by reference in its entirety). This assay is a homogeneous method of determining the number of viable cells in culture based on quantitation of the ATP present, an indicator of metabolically active cells. The assay is designed for use with multiwell formats, making it ideal for automated high-throughput screening (HTS), cell proliferation and cytotoxicity assays. The homogeneous assay procedure involves adding a single reagent (containing luciferase, luciferan substrate, and buffer) directly to cells cultured in serum-supplemented medium. Cell washing, removal of medium and multiple pipetting steps are not required. The system detects as few as 15 cells/well in a 384-well format in 10 minutes after adding reagent and mixing.
The homogeneous “add-mix-measure” format results in cell lysis and generation of a luminescent signal proportional to the amount of ATP present. The amount of ATP is directly proportional to the number of cells present in culture. The above-referenced assay generates a “glow-type” luminescent signal, produced by the luciferase reaction, which has a half-life generally greater than five hours, depending on cell type and medium used. The extended half-life eliminates the need to use reagent injectors and provides flexibility for continuous or batch mode processing of multiple plates. The unique homogeneous format avoids errors that may be introduced by other ATP measurement methods that require multiple steps.
HCT 116 cells (human colon carcinoma, ATCC-No. CCl-247) were cultivated in RPMI 1640 medium with GlutaMAX™ I (cell culture media that contains L-Alanyl-L-Glutamine [a stabilized a form/source of L-Glutamine] from Invitrogen, Cat-No. 61870-010), 2.5% Fetal Calf Serum (FCS, Sigma Cat-No. F4135 (FBS)); 100 Units/ml penicillin/100 μg/ml streptomycin (=Pen/Strep from Invitrogen Cat. No. 15140). For the assay the cells were seeded in 384 well plates, 1000 cells per well, in the same medium. The next day the test compounds were added in various concentrations ranging from 30 μM to 0.0015 μM (10 concentrations, 1:3 diluted). After 5 days the viability assay was done according to the instructions of the manufacturer. In brief: the cell-plate was equilibrated to room temperature for approximately 30 minutes and then reagent (containing luciferase, luciferan substrate, and buffer) was added. The contents were carefully mixed for 15 minutes to induce cell lysis. After 45 minutes the luminescent signal was measured in Victor 2, (scanning multiwell spectrophotometer, Wallac).
Medium: RPMI 1640 with cell culture media containing L-Alanyl-L-Glutamine [GlutaMAX™ I (Invitrogen, Cat-No. 61870)], 5% FCS (Sigma Cat.-No. F4135), Pen/Strep (Invitrogen, Cat No. 15140).
HCT116 (ATCC-No. CCl-247): 1000 cells in 60 μl per well of 384 well plate (Greiner 781098, μClear-plate white)
After seeding incubate plates 24 h at 37° C., 5% CO2
2nd. Day: Induction (Treatment with Compounds, 10 Concentrations):
In order to achieve a final concentration of 30 μM as highest concentration […] of 10 mM compound stock solution were added directly to […] media. Then step d) of the dilution procedure described below, was followed. […]

Aurora A kinase = target: T1, Aurora A kinase (Homo sapiens, UniProt O14965); test: IC50 determination for inhibitors of Aurora A (ELISA-type kinase assay); type: biochemical; conditions: GST-Histone H3 substrate, mutant Aurora A kinase, 30 μM ATP, 40 minutes, read-out: IC50 Aurora A kinase inhibition
T1 sequence (O14965 1-403): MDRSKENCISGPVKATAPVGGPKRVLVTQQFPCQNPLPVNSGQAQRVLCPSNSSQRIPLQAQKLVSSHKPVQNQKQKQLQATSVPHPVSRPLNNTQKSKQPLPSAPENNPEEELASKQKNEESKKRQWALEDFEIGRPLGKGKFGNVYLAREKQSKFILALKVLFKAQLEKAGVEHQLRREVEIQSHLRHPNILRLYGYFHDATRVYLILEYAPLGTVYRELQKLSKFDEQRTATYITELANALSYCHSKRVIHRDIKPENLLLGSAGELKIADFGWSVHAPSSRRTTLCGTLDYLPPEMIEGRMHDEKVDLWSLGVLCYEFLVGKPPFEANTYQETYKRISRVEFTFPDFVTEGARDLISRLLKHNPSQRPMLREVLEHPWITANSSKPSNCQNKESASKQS
Protocol: Aurora A is a serine threonine kinase involved in spindle assembly and chromosome segregation. The assay is a typically ELISA-type assay where substrate (GST-Histone H3) is coupled to the assay-plate and is phosphorylated by the kinase. Phosphorylation is detected by a mouse anti-Phosphopeptid mAb and an HRP-labeled anti-mouse pAb. The assay is validated for IC50-determination.
Kinase activities were measured by Enzyme-Linked Immunosorbent Assay (ELISA): Maxisorp 384-well plates (Nunc) were coated with recombinant fusion protein comprising residues 1-15 of HistoneH3 fused to the N-terminus of Glutathione-S-Transferase. Plates were then blocked with a solution of 1 mg/mL I-block (a highly purified form of casein, Tropix cat. no. T2015) in phosphate-buffered saline. Kinase reactions were carried out in the wells of the ELISA plate by combining an appropriate amount of mutant Aurora A kinase with test compound and 30 μM ATP. The reaction buffer was 10× Kinase Buffer (Cell Signaling cat. no. 9802) supplemented with 1 μg/mL I-block. Reactions were stopped after 40 minutes by addition of 25 mM EDTA. After washing, substrate phosphorylation was detected by addition of anti-phospho-Histone H3 (Ser 10) 6G3 mAb (Cell Signaling cat. no. 9706) and sheep anti-mouse pAb-HRP (Amersham cat# NA931V), followed by colorimetric development with TMB (3,3′,5,5′-tetramethylbenzidine from Kirkegaard & Perry Laboratories). After readout of the adsorbance, IC50 values were calculated using a non-linear curve fit (XLfit software (ID Business Solution Ltd., Guilford, Surrey, UK)).

Row | Compound | IC50 (HCT 116 cells) | IC50 (Aurora A kinase)
1 | CCN1C(=O)C(C)(C)c2cc3[nH]c(-c4n[nH]cc4NC(=O)c4cc(C)[nH]n4)nc3cc21 [Example C-14, 5-Methyl-1H-pyrazole-3-carboxylic acid[3-(5-ethyl-7,7-dimethyl-6-oxo-1,5,6,7-tetrahydro-imidazo[4,5-f]indol-2-yl)-1H-pyrazol-4-yl]-amide] | 1 to 1500 nM | 1 to 500 nM
2 | CCN1C(=O)C(C)(C)c2cc3[nH]c(-c4n[nH]cc4NC(=O)c4ccc(F)cc4)nc3cc21 [Example B-5, N-[3-(5-Ethyl-7,7-dimethyl-6-oxo-1,5,6,7-tetrahydro-imidazo[4,5-f]indol-2-yl)-1H-pyrazol-4-yl]-4-fluoro-benzamide] | 1 to 1500 nM | 1 to 500 nM
3 | CCN1C(=O)C(C)(C)c2cc3[nH]c(-c4n[nH]cc4NC(=O)OCCOC)nc3cc21 [Example E-15, [3-(5-Ethyl-7,7-dimethyl-6-oxo-1,5,6,7-tetrahydro-imidazo[4,5-f]indol-2-yl)-1H-pyrazol-4-yl]-carbamic acid 2-methoxy-ethyl ester] | 1 to 1500 nM | 1 to 500 nM
4 | CCN1C(=O)C(C)(C)c2cc3[nH]c(-c4n[nH]cc4NC(=O)OC)nc3cc21 [Example E-6, [3-(5-Ethyl-7,7-dimethyl-6-oxo-1,5,6,7-tetrahydro-imidazo[4,5-f]indol-2-yl)-1H-pyrazol-4-yl]-carbamic acid methyl ester] |  | 1 to 500 nM
5 | CC1(C)C(=O)Nc2cc3nc(-c4n[nH]cc4NC(=O)OCc4ccccc4)[nH]c3cc21 [Example E-4] | 1 to 1500 nM | 1 to 500 nM
6 | CCN1C(=O)C(C)(C)c2cc3[nH]c(-c4n[nH]cc4NC(=O)C4CC4)nc3cc21 [Example B-2, Cyclopropanecarboxylic acid[3-(5-ethyl-7,7-dimethyl-6-oxo-1,5,6,7-tetrahydro-imidazo[4,5-f]indol-2-yl)-1H-pyrazol-4-yl]-amide] | 1 to 1500 nM | 
7 | CCN1C(=O)C(C)(C)c2cc3[nH]c(-c4n[nH]c(C)c4NCc4ccccc4)nc3cc21 [Example G-2, 2-(4-Benzylamino-5-methyl-1H-pyrazol-3-yl)-5-ethyl-7,7-dimethyl-5,7-dihydro-1H-imidazo[4,5-f]indol-6-one] | 1 to 1500 nM | 
8 | CCN1C(=O)C(C)(C)c2cc3[nH]c(-c4n[nH]cc4NC(=O)N4CCCCCC4)nc3cc21 [Example F-5, Azepane-1-carboxylic acid[3-(5-ethyl-7,7-dimethyl-6-oxo-1,5,6,7-tetrahydro-imidazo[4,5-f]indol-2-yl)-1H-pyrazol-4-yl]-amide] | 1 to 1500 nM | 1 to 500 nM
9 | CCN1C(=O)C(C)(C)c2cc3[nH]c(-c4n[nH]cc4NC(=O)Cc4cccs4)nc3cc21 [Example B-10, N-[3-(5-Ethyl-7,7-dimethyl-6-oxo-1,5,6,7-tetrahydro-imidazo[4,5-f]indol-2-yl)-1H-pyrazol-4-yl]-2-thiophen-2-yl-acetamide] | 1 to 1500 nM | 1 to 500 nM
10 | CC(C)N1C(=O)C(C)(C)c2cc3nc(-c4n[nH]cc4NC(=O)N4CCCCC4)[nH]c3cc21 [Example E-19, Piperidine-1-carboxylic acid[3-(5-isopropyl-7,7-dimethyl-6-oxo-3,5,6,7-tetrahydro-imidazo[4,5-f]indol-2-yl)-1H-pyrazol-4-yl]-amide] | 1 to 1500 nM | 1 to 500 nM
11 | CCN1C(=O)C(C)(C)c2cc3[nH]c(-c4n[nH]cc4NC(=O)c4ccc5c(c4)OCO5)nc3cc21 [Example C-10, Benzo[1,3]dioxole-5-carboxylic acid[3-(5-ethyl-7,7-dimethyl-6-oxo-1,5,6,7-tetrahydro-imidazo[4,5-f]indol-2-yl)-1H-pyrazol-4-yl]-amide] | 1 to 1500 nM | 1 to 500 nM
12 | CCN1C(=O)C(C)(C)c2cc3[nH]c(-c4n[nH]cc4NC(=O)OC4CCCC4)nc3cc21 [Example E-16, [3-(5-Ethyl-7,7-dimethyl-6-oxo-1,5,6,7-tetrahydro-imidazo[4,5-f]indol-2-yl)-1H-pyrazol-4-yl]-carbamic acid cyclopentyl ester] | 1 to 1500 nM | 1 to 500 nM
13 | CCN1C(=O)C(C)(C)c2cc3[nH]c(-c4n[nH]cc4NC(=O)C(C)(C)CCl)nc3cc21 [Example B-21, 3-Chloro-N-[3-(5-ethyl-7,7-dimethyl-6-oxo-1,5,6,7-tetrahydro-imidazo[4,5-f]indol-2-yl)-1H-pyrazol-4-yl]-2,2-dimethyl-propionamide] | 1 to 1500 nM | 
14 | CCN(CCN(C)C)C(=O)Nc1c[nH]nc1-c1nc2cc3c(cc2[nH]1)C(C)(C)C(=O)N3CC [Example F-4, 1-(2-Dimethylamino-ethyl)-1-ethyl-3-[3-(5-ethyl-7,7-dimethyl-6-oxo-1,5,6,7-tetrahydro-imidazo[4,5-f]indol-2-yl)-1H-pyrazol-4-yl]-urea] |  | 1 to 500 nM
15 | CCN1C(=O)C(C)(C)c2cc3[nH]c(-c4n[nH]cc4NC(=O)c4ccccc4)nc3cc21 [Example A-3, N-[3-(5-Ethyl-7,7-dimethyl-6-oxo-1,5,6,7-tetrahydro-imidazo[4,5-f]indol-2-yl)-1H-pyrazol-4-yl]-benzamide] | 1 to 1500 nM | 
16 | CCN1C(=O)C(C)(C)c2cc3[nH]c(-c4n[nH]cc4NC(=O)c4cccc(Cl)c4)nc3cc21 [Example B-24, 3-Chloro-N-[3-(5-ethyl-7,7-dimethyl-6-oxo-1,5,6,7-tetrahydro-imidazo[4,5-f]indol-2-yl)-1H-pyrazol-4-yl]-benzamide] | 1 to 1500 nM | 
17 | CCN(CC)C(=O)Nc1c[nH]nc1-c1nc2cc3c(cc2[nH]1)C(CC)(CC)C(=O)N3C(C)C [Example E-21, 3-[3-(7,7-Diethyl-5-isopropyl-6-oxo-1,5,6,7-tetrahydro-imidazo[4,5-f]indol-2-yl)-1H-pyrazol-4-yl]-1,1-diethyl-urea] | 1 to 1500 nM | 
18 | CCN1C(=O)C(C)(C)c2cc3[nH]c(-c4n[nH]cc4NC(=O)N(C)C)nc3cc21 [Example E-10, 3-[3-(5-Ethyl-7,7-dimethyl-6-oxo-1,5,6,7-tetrahydro-imidazo[4,5-f]indol-2-yl)-1H-pyrazol-4-yl]-1,1-dimethyl-urea] |  | 1 to 500 nM
19 | CCN1C(=O)C(C)(C)c2cc3[nH]c(-c4n[nH]cc4NC(=O)COC)nc3cc21 [Example B-22, N-[3-(5-Ethyl-7,7-dimethyl-6-oxo-1,5,6,7-tetrahydro-imidazo[4,5-f]indol-2-yl)-1H-pyrazol-4-yl]-2-methoxy-acetamide] |  | 1 to 500 nM

— patent publication US7462639B2, “Aminopyrazole derivatives” (Hoffmann-La Roche Inc., priority 2005, dated 2008)
